The list shows a part of the results.
B1: il2ra_site2_2erj_normal_mot_HHH_b1_06554_af2_000000190_0001_44_57_H_._HHH_b2_05554_0001_0000100004_0000001_0_af2pred_0001_af2pred (protein)
chain: SSSSSSDLEERLEELLEEAKKIPDKEEALKLLQEALEIALELNDDELLELVTEAARESSSSSSSS
B2: il2ra_site2_2erj_normal_mot_af86707857d369f3e1d85dcabc5f9321_0001_000000201_0001_14_29_H_._HHH_b2_00608_0001_0000300022_0000001_0 (protein)
chain: SSSSDEEEVQELLREAKRLLENGDPERAAAVAISAAHLAAKLDDEELLREISKLFEEIYGSSSSS
B3: il2ra_site2_3nfp_sap_32_mot_HHH_b1_04787_000000220_0001_23_40_H_._HHH_b1_07367_0001_0000100002_0000001_0_0001 (protein)
chain: SSSSDKHERYLEAALELIKHAIQAGDEESAREHLETVKLAAEDNNDEEIQRLVEELEEELRSSSS
B4: il2ra_site1_1z92_sap_17_mot_HHH_b1_01613_000000190_0001_1_15_H_._HHH_b2_04434_0001_0000200013_0000001_1_0001 (protein)
chain: SEEERVEEIARELGIPPEVIELLLKDLEAAEKLGIPPEHALKAIARVAEQMGDPDILKLAEVLLK
B5: il2ra_site2_2erj_normal_mot_6ec3e94b46d95805cdcdc10c0c108f03_0001_af2_000000040_0001_36_50_H_._HHH_b1_06242_af2_0001_0000100002_0000001_0 (protein)
chain: SSSSDELRKLYELANRILHLLARGDPEEARELIEEAQELAEELQSDTAKEILEFLERLARSSSSS
B6: il2ra_site1_2b5i_normal_mot_HHH_b1_08157_af2_000000055_0001_42_55_H_._HHH_b1_04993_af2_0001_0000200013_0000001_0_af2pred_dldesign_0_af2pred (protein)
chain: SSSSSSDEVHDLALEAFRLKRAGKKEEAKKKLEEALKLAKEAKDEKLIAEVTYLLESLSSSSSSS
B7: il2ra_site1_3nfp_sap_17_mot_HHH_b1_07644_af2_000000110_0001_40_57_H_._HEEHE_2706_0001_0000400054_0000001_0_0001_af2pred_0001_af2pred_1_swapped (protein)
chain: SSSSDALEFVEELAEKAFENNDKFQLRALYKLLREALEKTGNPEAEEVLEKVEELLRELQSSSSS
B8: il2ra_site1_2b5i_sap_10_mot_037013d2e522ae4c653b5903b31fcd5c_0001_000000014_0001_34_49_H_._HHH_b1_07018_0001_0000300020_0000001_0_0001_af2pred_0001_af2pred (protein)
chain: SSSSSDYQEQILELIEEADKLDKNGNPEEARKVLEEALELAEEANNPSLARSIRLMLKLLSSSSS
B9: il2ra_site2_3nfp_normal_mot_ce0e691d864d74cc0dee145e42b7b696_0001_1_af2_000000051_0001_34_49_H_._HHH_b1_03816_af2_0001_0000100005_0000001_1 (protein)
chain: SSSDQELVEVLHQLFRALEEGDEELIEELRRELEELAKKVEDESLRQFAEQLLAAAALFLESSSS
B10: il2ra_site2_3nfp_sap_16_mot_HHH_b2_06150_000000217_0001_39_53_H_._2e137d6699d8fa890198131d25759a54_0001_0001_0000200025_0000001_1_0001 (protein)
chain: SSSSSKAEEYLEVALELLEELVELGDEELIRSALEVVEAMAESHNDEEAQELVEEVKKEFSSSSS
B11: il2ra_site1_3nfp_sap_19_mot_HHH_b2_01814_000000033_0001_1_16_H_._HHH_b2_06406_af2_0001_0000200017_0000001_1_0001 (protein)
chain: DKEEVAEAVEKLLEFAANLDSVEVSVHNGTLHVTVEGDDSQARAALKIAERAAKRFGIEVEVETE
B12: il2ra_site2_2erj_sap_16_mot_c2bf78bdce995293a161f7082e24b401_0001_af2_000000082_0001_17_32_H_._ee6f2efe1cc829cadc28c075f8154135_0001_1_0001_0000200036_0000001_0 … (protein)
chain: SSSDEEVERFAEEVVEELRELVEKGDQEEFNRLATRVIEFVRQHNNDRALYLLWEIMRLNVSSSS
B13: il2ra_site1_1z92_sap_11_mot_add8a691351788dd45ba4deda1838316_0001_1_000000225_0001_37_51_H_._HHH_b1_04072_0001_0000300033_0000001_0_0001_af2pred_0001_af2pred (protein)
chain: SSSSDLEHQAKLIVRAAVEAAGLSEEQEEELQKVARELVERGLSFEEIFRELDRVALELNSSSSS
B14: il2ra_site2_3nfp_normal_mot_49a7c9051cacde34b31d84fabeb7f3ea_0001_af2_000000030_0001_39_52_H_._HHH_b2_06514_af2_0001_0000100001_0000001_1 (protein)
chain: SSSSDEEEKELEELQELLKRLKEEGDRFELLRVLVRASQLAARLGDEEAVRRELELYEELASSSS
B15: il2ra_site2_2erj_normal_mot_HHH_b1_05749_af2_000000086_0001_23_39_H_._HHH_eva_0415_0001_0000100012_0000001_0 (protein)
chain: SSSEELRIAYKLAVRLLHFEARGLSEEQLEEIARKIEEEAEKRLDPAVSEQLRELLEEFVEEASS
B16: il2ra_site2_2erj_normal_mot_HHH_b1_00612_000000025_0001_42_56_H_._HHH_b2_02466_0001_0001000046_0000001_0 (protein)
chain: SSSSSDEEEVFQLVSELAARLAHVDEEEARKLLEEAEELARELGNEILERYLELAHREASSSSSS
B17: il2ra_site1_2b5i_sap_12_mot_ab7d8a294c6210bf73dc5e3fe74162db_0001_af2_000000011_0001_1_14_H_._HHH_b2_05214_af2_0001_0000100003_0000001_0_0001_af2pred_0001_af2pr … (protein)
chain: SSSSSELAEEALELLREADELFKNGDEEEAEKVLEEAERIAEEGGNRSLLKLLRSALRLIRSSSS
B18: il2ra_site2_3nfp_normal_mot_HHH_b2_06150_000000217_0001_39_53_H_._HHH_b1_06685_0001_0000300024_0000001_0 (protein)
chain: SSSSDEEERRVKELLERVEEAIEKGDEELAQRLLAEATHIVFKNRNSELFYLIAELLLELRSSSS

target: il2ra, P01589; assay: yeast display titration

Apparent Kd, inactive:
B1 no binding seen
B2 no binding seen
B3 no binding seen
B4 no binding seen
B5 no binding seen
B6 no binding seen
B7 no binding seen
B8 no binding seen
B9 no binding seen
B10 no binding seen
B11 no binding seen
B12 no binding seen
B13 no binding seen
B14 no binding seen
B15 no binding seen
B16 no binding seen
B17 no binding seen
B18 no binding seen

Not a retest: entries from further up.
Apparent Kd, inactive:
B4 no binding seen
B5 no binding seen
B6 no binding seen

From paper PMC10163288
